For 1 molecule, binding results are on record in publication PMC3521008.

Results are given in words; binding and its absence hold for the method and conditions named. Some binding calls cover weakened binding; strength is not graded here.

The assay has as its target T1, MTG16 in the pGAD-GW/pGBT9-GW yeast two-hybrid system (UniProt O75081).
T1 sequence: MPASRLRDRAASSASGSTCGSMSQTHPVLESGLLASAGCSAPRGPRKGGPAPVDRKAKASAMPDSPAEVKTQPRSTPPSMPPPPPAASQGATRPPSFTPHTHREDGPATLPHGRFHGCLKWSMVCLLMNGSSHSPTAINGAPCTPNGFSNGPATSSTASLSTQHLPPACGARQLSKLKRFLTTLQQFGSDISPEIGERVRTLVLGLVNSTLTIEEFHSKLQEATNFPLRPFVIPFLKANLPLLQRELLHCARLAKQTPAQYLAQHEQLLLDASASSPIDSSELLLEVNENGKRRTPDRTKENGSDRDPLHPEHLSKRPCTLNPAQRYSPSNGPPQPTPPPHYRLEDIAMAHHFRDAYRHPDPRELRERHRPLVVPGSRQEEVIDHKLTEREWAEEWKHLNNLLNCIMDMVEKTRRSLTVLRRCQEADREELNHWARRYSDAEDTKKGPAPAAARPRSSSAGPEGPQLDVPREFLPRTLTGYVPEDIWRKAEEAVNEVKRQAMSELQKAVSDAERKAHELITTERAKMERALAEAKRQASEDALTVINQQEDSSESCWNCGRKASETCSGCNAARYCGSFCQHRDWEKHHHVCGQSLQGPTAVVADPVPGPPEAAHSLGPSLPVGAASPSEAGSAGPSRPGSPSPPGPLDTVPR
Briefly: two-hybrid; directed assay in the pGAD-GW/pGBT9-GW system: Kaiso 298-573 with MTG16 and MTG16 deletion constructs; growth on quadruple-dropout plates (-leu, -trp, -his, -ala); empty vector bait as negative control; in triplicate.

B1: Kaiso amino acids 298-573 (yeast two-hybrid clone) (domain or fragment, UniProt Q86T24 298-573)
chain: LPNHMPSSINLLVQNQQTPNSAILTGNKANEEEEEEIIDDDDDTISSSPDSAVSNTSLVPQADTSQNTSFDGSLIQKMQIPTLLQEPLSNSLKISDIITRNTNDPGVGSKHLMEGQKIITLDTATEIEGLSTGCKVYANIGEDTYDIVIPVKDDPDEGEARLENEIPKTSGSEMANKRMKVKHDDHYELIVDGRVYYICIVCKRSYVCLTSLRRHFNIHSWEKKYPCRYCEKVFPLAEYRTKHEIHHTGERRYQCLACGKSFINYQFMSSHIKSVH
For B1, the binding result is “binds”.
